The target in the experiment is T1, human recombinant ALDH3A1 (aldehyde dehydrogenase 3A1), fused with 6 histidines in its carboxyl end (human) (UniProt P30838).
T1 sequence: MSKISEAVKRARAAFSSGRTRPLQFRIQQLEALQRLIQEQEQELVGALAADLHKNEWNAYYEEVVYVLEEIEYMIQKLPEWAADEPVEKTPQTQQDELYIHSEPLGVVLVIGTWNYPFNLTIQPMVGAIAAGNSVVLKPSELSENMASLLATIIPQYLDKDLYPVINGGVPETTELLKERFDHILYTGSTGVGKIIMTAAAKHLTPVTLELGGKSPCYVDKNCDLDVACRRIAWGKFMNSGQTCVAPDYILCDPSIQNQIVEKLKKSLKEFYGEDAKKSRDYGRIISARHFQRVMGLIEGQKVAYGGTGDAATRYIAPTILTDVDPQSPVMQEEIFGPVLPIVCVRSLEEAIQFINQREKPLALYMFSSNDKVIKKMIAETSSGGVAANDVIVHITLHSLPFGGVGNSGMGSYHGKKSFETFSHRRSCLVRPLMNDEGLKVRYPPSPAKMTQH
The experiment in a line: phage display panning; ALDH3A1 (75 μg) coated on a Petri dish in 0.1 M NaHCO3 pH 8.6, blocked with BSA; 4 × 10^10 phages of the 12-mer library in TBST, 60 min at RT; elution with 0.2 M glycine-HCl pH 2.2; three rounds of panning; 33 plaques sequenced; only the target purified.

The results in this text go back to article PMC10067601, “Identification of a peptide ligand for human ALDH3A1 through peptide phage display: Prediction and characterization of protein interaction sites and inhibition of ALDH3A1 enzymatic activity” (Frontiers in Molecular Biosciences, 2023).

Results are given in words; binding and its absence hold for the method and conditions named. Some binding calls cover weakened binding; strength is not graded here. Sequences can lack the tags named with a protein.

As for ALHPLTNRHYAT, the binding entry was “binds”.

As for TPFPFAPLGRPP, the binding result is recorded as “binds”.

As for WPTYVSPFRSPP [peptide … (P1) displayed on M13 phage], the binding result is “binds”.

In the case of WPTSLTSAQFLF, the binding result is reported as “binds”.
